No constants are given. Whether binding was seen depends on the method and setting. In cells and extracts the contact can be indirect. Some results given as binding are weak or reduced against the parent protein; the word gives no strength.
Legend:
[1] = target: T1, YTH-domain family protein 3 (YTHDF3), endogenous (human (endogenous in HK1)) (UniProt Q7Z739); test: co-IP; endogenous proteins; HK1 cell lysates precipitated with YTHDF3 antibody, immunoblot with DDX5, DDX6 and DDX17 antibodies; IgG-IP as control
T1 sequence: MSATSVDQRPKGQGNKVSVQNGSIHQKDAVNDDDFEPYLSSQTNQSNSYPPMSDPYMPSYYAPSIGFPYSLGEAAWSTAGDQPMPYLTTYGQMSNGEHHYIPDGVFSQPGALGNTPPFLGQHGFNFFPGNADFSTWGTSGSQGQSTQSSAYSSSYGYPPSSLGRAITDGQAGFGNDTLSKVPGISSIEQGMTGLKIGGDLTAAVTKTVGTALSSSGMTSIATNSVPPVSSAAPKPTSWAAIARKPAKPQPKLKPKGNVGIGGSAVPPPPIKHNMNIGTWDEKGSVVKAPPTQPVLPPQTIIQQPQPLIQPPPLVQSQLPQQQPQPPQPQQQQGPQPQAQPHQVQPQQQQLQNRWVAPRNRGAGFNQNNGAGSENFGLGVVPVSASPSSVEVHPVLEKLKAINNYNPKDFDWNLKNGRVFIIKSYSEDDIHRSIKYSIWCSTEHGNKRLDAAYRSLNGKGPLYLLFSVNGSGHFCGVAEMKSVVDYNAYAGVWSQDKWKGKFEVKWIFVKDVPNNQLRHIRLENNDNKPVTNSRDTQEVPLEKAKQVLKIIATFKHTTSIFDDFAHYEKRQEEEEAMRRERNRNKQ

The chains behind the UniProt entries cited, without tags or fusion partners. Residues count along the entry.
UniProt P03188, residues 22-857: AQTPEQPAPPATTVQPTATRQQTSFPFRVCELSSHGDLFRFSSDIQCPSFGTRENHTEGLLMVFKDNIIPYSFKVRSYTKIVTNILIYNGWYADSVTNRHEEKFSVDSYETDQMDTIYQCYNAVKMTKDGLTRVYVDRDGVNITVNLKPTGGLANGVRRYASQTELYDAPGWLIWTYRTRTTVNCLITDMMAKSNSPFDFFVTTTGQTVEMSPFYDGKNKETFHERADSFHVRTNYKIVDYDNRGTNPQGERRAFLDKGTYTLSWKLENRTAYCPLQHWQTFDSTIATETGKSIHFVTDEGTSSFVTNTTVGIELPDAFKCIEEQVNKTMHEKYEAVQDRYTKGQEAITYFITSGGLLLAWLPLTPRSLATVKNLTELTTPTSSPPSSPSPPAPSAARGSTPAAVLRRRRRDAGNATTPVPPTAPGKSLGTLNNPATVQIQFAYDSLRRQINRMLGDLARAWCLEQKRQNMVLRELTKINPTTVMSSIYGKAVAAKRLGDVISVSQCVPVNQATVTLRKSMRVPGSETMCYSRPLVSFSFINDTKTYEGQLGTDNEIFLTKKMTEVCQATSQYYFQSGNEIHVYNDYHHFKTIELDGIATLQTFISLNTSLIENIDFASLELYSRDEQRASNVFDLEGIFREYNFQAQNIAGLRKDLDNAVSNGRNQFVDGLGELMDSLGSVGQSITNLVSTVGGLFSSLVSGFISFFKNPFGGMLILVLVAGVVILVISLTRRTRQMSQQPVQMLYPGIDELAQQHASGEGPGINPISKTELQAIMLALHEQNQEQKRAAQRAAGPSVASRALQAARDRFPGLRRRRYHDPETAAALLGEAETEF
UniProt P13164: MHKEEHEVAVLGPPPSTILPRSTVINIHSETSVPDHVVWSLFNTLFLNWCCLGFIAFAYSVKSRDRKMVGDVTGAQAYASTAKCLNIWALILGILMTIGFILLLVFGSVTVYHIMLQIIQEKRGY
UniProt P29317, residues 24-976: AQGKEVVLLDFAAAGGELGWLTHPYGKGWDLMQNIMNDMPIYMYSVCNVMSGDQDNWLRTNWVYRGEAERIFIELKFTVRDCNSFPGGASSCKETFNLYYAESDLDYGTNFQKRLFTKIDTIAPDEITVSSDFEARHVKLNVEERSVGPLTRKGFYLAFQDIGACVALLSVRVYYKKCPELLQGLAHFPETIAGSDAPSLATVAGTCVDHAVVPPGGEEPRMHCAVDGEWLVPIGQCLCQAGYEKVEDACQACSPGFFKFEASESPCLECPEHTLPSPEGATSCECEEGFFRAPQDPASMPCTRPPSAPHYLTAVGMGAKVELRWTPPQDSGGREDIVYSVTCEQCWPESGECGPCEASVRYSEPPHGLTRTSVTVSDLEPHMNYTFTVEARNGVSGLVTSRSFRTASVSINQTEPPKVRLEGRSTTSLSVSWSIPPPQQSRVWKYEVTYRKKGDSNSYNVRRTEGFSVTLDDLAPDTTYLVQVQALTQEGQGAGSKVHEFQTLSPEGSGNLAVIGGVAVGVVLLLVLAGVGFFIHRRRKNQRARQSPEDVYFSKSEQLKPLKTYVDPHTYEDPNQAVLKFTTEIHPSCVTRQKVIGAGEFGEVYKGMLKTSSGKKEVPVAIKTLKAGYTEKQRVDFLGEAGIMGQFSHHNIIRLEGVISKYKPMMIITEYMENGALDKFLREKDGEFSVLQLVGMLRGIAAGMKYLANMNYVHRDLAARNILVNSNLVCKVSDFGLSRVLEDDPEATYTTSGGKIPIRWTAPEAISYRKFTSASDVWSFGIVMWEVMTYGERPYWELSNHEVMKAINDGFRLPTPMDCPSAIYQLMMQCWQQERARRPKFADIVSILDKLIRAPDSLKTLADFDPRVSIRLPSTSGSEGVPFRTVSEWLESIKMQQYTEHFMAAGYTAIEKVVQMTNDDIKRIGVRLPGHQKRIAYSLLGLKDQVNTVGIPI
UniProt Q92841: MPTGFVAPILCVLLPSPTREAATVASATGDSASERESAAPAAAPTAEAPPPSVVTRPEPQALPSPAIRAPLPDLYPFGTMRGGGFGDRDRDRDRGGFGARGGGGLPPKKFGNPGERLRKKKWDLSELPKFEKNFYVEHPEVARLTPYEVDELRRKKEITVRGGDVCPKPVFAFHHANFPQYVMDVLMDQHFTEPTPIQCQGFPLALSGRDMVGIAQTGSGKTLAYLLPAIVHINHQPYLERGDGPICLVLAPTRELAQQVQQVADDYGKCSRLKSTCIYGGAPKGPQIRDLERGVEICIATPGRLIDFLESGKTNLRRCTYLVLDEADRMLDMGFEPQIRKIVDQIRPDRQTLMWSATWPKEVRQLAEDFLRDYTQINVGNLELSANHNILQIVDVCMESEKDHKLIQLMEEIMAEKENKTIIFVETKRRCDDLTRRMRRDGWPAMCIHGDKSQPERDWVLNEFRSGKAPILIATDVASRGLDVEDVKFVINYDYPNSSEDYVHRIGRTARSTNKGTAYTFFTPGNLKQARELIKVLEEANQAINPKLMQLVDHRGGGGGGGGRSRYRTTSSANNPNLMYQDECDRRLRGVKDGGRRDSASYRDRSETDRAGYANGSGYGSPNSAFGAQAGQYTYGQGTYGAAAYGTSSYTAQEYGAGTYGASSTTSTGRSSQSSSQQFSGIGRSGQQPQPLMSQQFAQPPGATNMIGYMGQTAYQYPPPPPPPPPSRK
UniProt P17844: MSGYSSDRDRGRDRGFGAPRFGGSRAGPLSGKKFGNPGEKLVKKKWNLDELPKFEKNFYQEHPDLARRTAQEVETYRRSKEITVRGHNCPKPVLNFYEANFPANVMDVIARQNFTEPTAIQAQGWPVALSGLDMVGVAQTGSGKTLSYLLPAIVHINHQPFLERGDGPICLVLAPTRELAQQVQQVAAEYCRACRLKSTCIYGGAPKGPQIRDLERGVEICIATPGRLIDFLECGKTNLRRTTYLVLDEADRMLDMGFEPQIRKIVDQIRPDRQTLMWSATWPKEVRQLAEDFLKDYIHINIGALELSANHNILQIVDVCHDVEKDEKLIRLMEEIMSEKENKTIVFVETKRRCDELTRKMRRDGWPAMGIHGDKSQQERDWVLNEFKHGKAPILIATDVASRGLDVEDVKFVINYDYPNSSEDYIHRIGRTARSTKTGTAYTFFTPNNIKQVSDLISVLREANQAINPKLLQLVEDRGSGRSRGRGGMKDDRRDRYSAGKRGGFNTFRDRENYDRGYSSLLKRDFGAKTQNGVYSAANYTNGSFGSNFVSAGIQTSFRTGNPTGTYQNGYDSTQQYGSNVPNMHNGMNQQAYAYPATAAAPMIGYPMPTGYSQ

[2] = target: Myc-gB (EBV glycoprotein B) (Epstein-Barr virus) (UniProt P03188); test: co-IP; HEK293 cells transfected with three plasmids 1:1:1 (Myc-gH/gL or Myc-gB, EphA2 or endogenous EphA2, IFITM1 / empty vector / shIFITM1 / shLacZ / IFITM1^w / IFITM1^m1+2); lysates precipitated with anti-Myc antibody, immunoblot with anti-EphA2, Myc and IFITM1 antibodies
[3] = target: Interferon-induced transmembrane protein-1 (IFITM1), endogenous (human (endogenous in NP69 and HK1)) (UniProt P13164); test: co-IP; endogenous proteins; NP69 and HK1 cell lysates precipitated with IFITM1 antibody, immunoblot with EphA2 antibody; IgG-IP as control
[4] = target: EphA2, overexpressed in HEK293 cells (UniProt P29317); test: co-IP; HEK293 cells transfected with three plasmids 1:1:1 (Myc-gH/gL or Myc-gB, EphA2 or endogenous EphA2, IFITM1 / empty vector / shIFITM1 / shLacZ / IFITM1^w / IFITM1^m1+2); lysates precipitated with anti-Myc antibody, immunoblot with anti-EphA2, Myc and IFITM1 antibodies

Row | Substance | binding [1] | binding [2] | further results
1 | DDX17, endogenous (from UniProt Q92841 1-729) | binds |  | 
2 | DEAD-box protein 5 (DDX5), endogenous (from UniProt P17844 1-614) | binds |  | 
3 | EphA2, overexpressed in HEK293 cells (from UniProt P29317 24-976) (receptor) |  | binds | 
4 | Ephrin receptor A2 (EphA2), endogenous (from UniProt P29317 24-976) |  | binds | binding [3]: binds
5 | IFITM1, overexpressed in HEK293 cells (wild type) (from UniProt P13164 1-125) |  |  | binding [4]: binds

From PMC11087256
